Assay results reported in patent US5885811A, “Leader sequence inducing a post-translational modification of polypeptides in bacteria gene therefor and subtilin variant of enhanced stability and activity” (University of Maryland, priority 1995, dated 1999).
Part of at least one peptide drawing is inferred or uncertain, most often the ends.

Test: Halo assay of producing colony
Assay type: cell-based
Settings: LHE4IScat colony

SMILES: C=C(NC(=O)[C@@H](NC(=O)[C@H](CCCCN)NC(=O)[C@@H]1CSC(C)[C@H]2NC(=O)[C@H](CC(C)C)NC(=O)[C@H](NC(=O)[C@H](CCC(N)=O)NC(=O)[C@H](CC(C)C)NC(=O)[C@H](Cc3ccccc3)NC(=O)[C@@H]3CSC(C)[C@@H](NC(=O)[C@@H](NC(=O)[C@@H]4CSC(C)[C@@H](NC(=O)[C@@H]5CSC[C@@H](NC(=O)[C@H](CCCCN)NC(=O)[C@@H](N)Cc6c[nH]c7ccccc67)C(=O)N[C@@H]([C@@H](C)CC)C(=O)NC(=C)C(=O)N[C@@H](CC(C)C)C(=O)N5)C(=O)N5CCC[C@H]5C(=O)NCC(=O)N4)C(C)C)C(=O)NCC(=O)N[C@@H](C)C(=O)N[C@@H](CC(C)C)C(=O)N[C@@H](CCC(N)=O)C(=O)NC(=CC)C(=O)N3)C(C)SC[C@H](NC2=O)C(=O)N[C@@H](CC(N)=O)C(=O)N1)[C@@H](C)CC)C(=O)N[C@@H](CCCCN)C(=O)O (stereo partly shown) [E4I-subtilin]
- antimicrobial activity in halo assay: has antimicrobial activity
